Test results as given in US12551481B2, “Molecular targets for addiction” (The Jackson Laboratory, priority 2019, dated 2026).
“Also recorded” adds a separate entry of the source. At least one structure is not confirmed: it was looked up by name or label, or the drawing left a doubt.

System: Htr1d expression
Assay: Htr1d expression in founder strains of CC/DO mice after repeated exposure to cocaine or sham (saline)
Format: in vivo, mouse
Description: Identification of a target for addiction treatment was undertaken using Diversity Outbred (DO) stock of mice and the eight founding inbred strains used to generate the DO stock, which are a genetically diverse collect of mice used to validate […] trait loci (QTLs) linked to disease susceptibility, drug resistance, or behavioral phenotypes (see, e.g., Saul et al., 2019, Trends in Genetics (PMID: 31133439)). DO mice were developed by random outcross mating of 160 incipient Collaborative Cross recombinant inbred mouse lines, which were created by crossing eight unique and genetically diverse inbred mouse strains. […] Upregulation after cocaine exposure was also observed in PWK/PhJ males.

For `COC(=O)[C@H]1[C@@H](OC(=O)c2ccccc2)C[C@@H]2CC[C@H]1N2C` [cocaine], the “Htr1d expression after cocaine exposure compared to sham” value (129S1/SvlmJ males) was “increased”, the “Htr1d expression after cocaine exposure compared to sham” value (CAST/EiJ males) was “lowered; also recorded: decreased” and the “Htr1d expression after cocaine exposure” value (PWK/PhJ males) was “Upregulation”.
